Results from PubChem BioAssay AID2685 (National Center for Advancing Translational Sciences (NCATS), 2010).
This is one part of the list. The main result of the screen is listed elsewhere. These columns were measured beside it and carry no call. Compounds called inactive in the main read-out are mostly missing here. The note in brackets gives the kind of curve behind each potency; many fits are weak.

Test: qHTS Assay for Lipid Storage Modulators in Drosophila S3 Cells;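 as to cell number change: cells counted by Cell Tracker Red CMTPX staining in the red channel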
Details: BODIPY lipid droplet fluorescence, 18-24 h; for cell number change: measured here: cell count max response, cells fed with added oleic acid
In short: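 Drosophila S3 cells loaded with oleic acid (400 uM, as added) and compounds at several concentrations; lipid droplets imaged by 488-nm laser-scanning cytometry, 500–530 nm intensity and object ratio to cell channel. Percent activity normalized to 20 uM Triacsin C.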

[1] = measured here: lipid fluorescence (Fed channel) AC50, cells fed with added oleic acid
[2] = measured here: cell number channel AC50, cells fed with added oleic acid

Row | Structure (SMILES) | cell number change [%] | AC50 [1] | AC50 [2]
1 | CCCCCC(=O)Nc1cccc(C2=NOC3(C2)C[C@@H](C(N)=O)N(C(=O)c2ccc(OC)cc2)C3)c1 (stereo not given in full) | 25.2 | 13 µM [rising, single point] | –
2 | CN(C)c1ccc(/C=N/NC(=O)CNC(=O)c2ccncc2)cc1 | 11.2 | 4.61 µM [rising, partial curve, poor fit] | 3.66 µM [rising, partial curve, poor fit]
3 | COc1ccc(NC(=O)COc2ccc(C(=O)OCC(=O)N(C)C3CCS(=O)(=O)C3)cc2OC)cc1 (stereo not given) | 35.7 | 29.1 µM [rising, single point] | 9.2 µM [rising, partial curve, poor fit]
4 | N#Cc1c(Oc2ccc3ccccc3c2)sc(C(=O)c2ccccc2)c1N | -4.58 | 7.31 µM [falling, single point] | –
5 | CC(O)Cn1nc([N+](=O)[O-])nc1N (stereo not given) | 28.3 | – | –
6 | COc1cccc(C(C#N)N2CCOCC2)c1 (stereo not given) | -51.7 | 2.06 µM [rising, partial curve] | –
7 | NS(=O)(=O)c1ccc(O)c(NC(=O)c2ccc([N+](=O)[O-])cc2)c1 | -58 | – | 18.4 µM [falling, single point]
8 | CCOC(=O)c1c(C)[nH]c(C)c1S(=O)(=O)NCC1CCN(Cc2cccc(F)c2)CC1 | -6.65 | 29.1 µM [rising, single point] | –
9 | CCOC(=O)c1ccccc1NC(=O)c1ccccc1NS(C)(=O)=O | 1.65 | 5.17 µM [rising, single point] | –
10 | Cn1nc(-c2ccccc2)c(-c2nc(-c3cccc(C(F)(F)F)c3)no2)c1Cl | 49.8 | 1.03 µM [rising, full curve] | 0.731 µM [rising, full curve]
11 | Cc1nnc(C)n1/N=C/c1ccc(-c2ccccc2Cl)o1 | 3.75 | 7.31 µM [rising, single point] | –
12 | C=CCn1c(SCC(=O)NCC2CCCO2)nnc1-c1ccncc1 (stereo not given) | -3.24 | – | –
13 | C(=N/Nc1cc(N2CCOCC2)nc(N2CCOCC2)n1)/c1ccccc1 | 19.1 | 20.6 µM [rising, single point] | –
14 | c1cn(CCCNc2ncnc3sc4c(c23)CCC4)cn1 | -3.84 | 0.116 µM [rising, full curve, poor fit] | –
15 | CCC1CN(C(=O)NCc2ccccc2)c2cc(Cl)ccc2O1 (stereo not given) | 5.67 | 0.116 µM [falling, full curve, poor fit] | –
16 | COc1ccc(CNC(=O)Nc2cccc(C(F)(F)F)c2)cc1OC | -7.89 | 6.51 µM [falling, single point] | –
17 | CCOC(=O)NC(Nc1nc2ccccc2s1)(C(=O)OCC)C(F)(F)F (stereo not given) | -7.3 | – | –
18 | CNC(=O)CSCc1cnn(-c2ccccc2)c1-n1cccc1 | 11.8 | 0.0058 µM [rising, full curve, poor fit] | –
19 | Cc1ccc2cccc(S(=O)(=O)NC3CCS(=O)(=O)C3)c2n1 (stereo not given) | 6.56 | – | –
20 | COc1ccccc1CCC(=O)Nc1ccc(S(=O)(=O)Nc2nccs2)cc1 | -14.9 | – | 0.0731 µM [falling, full curve, poor fit]
21 | CCOc1ccc(N(CC(=O)NC2CCCC2)C(=O)CSc2nnc(COc3ccccc3)o2)cc1 | 148 | 9.2 µM [rising, partial curve] | 9.2 µM [rising, partial curve]

Row | Structure (SMILES) | cell number change [%] | AC50 [1] | AC50 [2]
22 | Cc1cc(C(=O)CCC(=O)N2CCN(S(=O)(=O)c3ccccc3)CC2)c(C)s1 | – | – | 4.61 µM [falling, partial curve, poor fit]
23 | CCOC(=O)c1ccc(NC(=O)CSc2ccc(-c3ccccn3)nn2)cc1 | 11.8 | – | –
24 | CCOc1ccc2[nH]c3c(N4CCc5ccccc5C4)ncnc3c2c1 | -51.5 | 20.6 µM [falling, single point] | 20.6 µM [falling, single point]
25 | CCN(CC)CCN(C(=O)/C=C/c1cccs1)c1nc2ccc(Cl)cc2s1 | -0.295 | – | 4.11 µM [rising, single point]
26 | Cc1ccc(C(C)C)c(OCCCN2CCc3ccccc3C2)c1 | – | 20.6 µM [falling, partial curve] | –
27 | O=C(/C=C/c1ccc(Cl)cc1Cl)NC(=S)Nc1ccccn1 | 8.4 | – | –
28 | CCCCC(=O)Nc1cccc(NC(=S)NC(=O)Cc2ccccc2)c1 | -8.93 | 18.4 µM [falling, partial curve] | –
29 | O=S(=O)(Nc1nc(-c2sccc2Cl)cs1)c1cc(Cl)ccc1Cl | -17.8 | 6.51 µM [rising, single point] | –
30 | CCOc1cccc2cc(C(=O)N3CCOCC3)c(=O)oc12 | 0.495 | 6.51 µM [falling, single point] | –
31 | CCC(=O)NC1CCN(C(=S)NC)CC1 | -4.67 | – | –
32 | COc1ccc(-c2cc(C(=O)Nc3c(C)n(C)n(-c4ccccc4)c3=O)c3ccccc3n2)cc1 | 2.17 | – | –
33 | Cc1ccc(/C=N/n2cnc3sc(-c4ccccc4)cc3c2=O)o1 | 39.8 | – | 2.91 µM [rising, single point]
34 | Cc1c(CN2CCN(CC(C)C)C(CCO)C2)[nH]c2ccc(Cl)cc12 (stereo not given) | -11.5 | – | –
35 | COc1cc(C2=NOC(C(=O)Nc3c(C)n(C)n(-c4ccccc4)c3=O)C2)cc(OC)c1OC (stereo not given) | 0.272 | – | –
36 | Cc1onc(-c2ccccc2)c1C(=O)Nc1nnc(CC(C)(C)C)s1 | 5.42 | 2.31 µM [falling, partial curve] | –
37 | Cc1ccsc1/C=N/NC(=O)c1ccc2nc[nH]c2c1 | -5.97 | 32.6 µM [rising, single point] | –
38 | Cc1ccc(S(=O)(=O)c2nc(Cc3ccccc3)oc2N2CCOCC2)cc1 | 14 | – | 0.0058 µM [rising, full curve, poor fit]
39 | CC(=O)Nc1ccc(C(=O)N(C)c2ccccc2)cc1 | 4.42 | – | 0.651 µM [falling, full curve, poor fit]
40 | CCCOc1ccc(CNC(=O)c2ccc3nc(N4CCOCC4)sc3c2)cc1 | 21.6 | – | 0.058 µM [rising, full curve, poor fit]
41 | COc1ccc(C(=O)Nn2c(SCc3ccc([N+](=O)[O-])cc3)nc3ccccc3c2=O)cc1 | 72.7 | – | 20.6 µM [rising, single point]
42 | COc1ccc(NC(=O)CC2C(=O)N(C)C(=S)N2CCc2ccccc2)cc1 (stereo not given) | 0.144 | 2.91 µM [rising, partial curve, poor fit] | –

Reformatted tab-delimited: entries from further up.
Row	Structure (SMILES)	cell number change [%]	AC50 [1]	AC50 [2]
18	CNC(=O)CSCc1cnn(-c2ccccc2)c1-n1cccc1	11.8	0.0058 µM [rising, full curve, poor fit]	–
19	Cc1ccc2cccc(S(=O)(=O)NC3CCS(=O)(=O)C3)c2n1 (stereo not given)	6.56	–	–
20	COc1ccccc1CCC(=O)Nc1ccc(S(=O)(=O)Nc2nccs2)cc1	-14.9	–	0.0731 µM [falling, full curve, poor fit]
21	CCOc1ccc(N(CC(=O)NC2CCCC2)C(=O)CSc2nnc(COc3ccccc3)o2)cc1	148	9.2 µM [rising, partial curve]	9.2 µM [rising, partial curve]

(continued)

Row | Structure (SMILES) | cell number change [%] | AC50 [1] | AC50 [2]
43 | C=CCn1c(COc2ccccc2)nnc1SCC(=O)Nc1ccc2c(c1)OCCO2 | -40.7 | 16.4 µM [falling, partial curve] | 16.4 µM [falling, partial curve]
44 | CC(C)(C)c1cccc(Oc2nn[nH]n2)c1 | 27.6 | – | –
45 | C[C@]12CC[C@@H]3c4ccc(O)cc4[C@@H](O)C[C@H]3[C@@H]1CC[C@@H]2O | 10.4 | 0.58 µM [falling, full curve, poor fit] | –
46 | COCC(=O)N(C)c1nnc(-c2ccccn2)s1 | – | 0.00461 µM [rising, full curve, poor fit] | –
47 | COc1cc(C(=O)/C=C/c2cccnc2)ccc1O | 24.4 | – | –
48 | Cc1ccc(Cl)cc1N1CCN(C(=O)c2ccc(NS(=O)(=O)c3c(C)noc3C)cc2)CC1 | -32 | 0.00411 µM [falling, full curve, poor fit] | 32.6 µM [falling, partial curve, poor fit]
49 | CCNS(=O)(=O)c1ccc2nc(NC(=O)/C=C/c3cc(OC)c(OC)c(OC)c3)sc2c1 | 11.1 | 0.00461 µM [falling, full curve, poor fit] | –
50 | CC1CN(S(=O)(=O)c2cccc(C(=O)Nc3ccccc3N3CCCCC3)c2)CC(C)O1 (stereo not given) | – | 29.1 µM [falling, single point] | –
51 | Cc1ccc(C(=O)N/N=C/c2ccc(N3CCOCC3)cc2)c(C)c1 | 44.4 | – | 16.4 µM [rising, single point]
52 | CCOC(=O)C1=C(O)C(=O)NC(c2ccccc2)=C(OC2CCCCC2)C1 | -9.22 | 0.58 µM [falling, single point] | –
53 | COc1ccc(-c2csc(NC(=O)c3cccc(S(=O)(=O)N4CCN(C)CC4)c3)n2)cc1 | -16.9 | 0.103 µM [falling, full curve, poor fit] | 0.231 µM [falling, full curve]
54 | COc1ccccc1NC(=O)/C=C1\SCC(=O)N1C | 43.7 | – | 29.1 µM [rising, single point]
55 | Cc1ccc(C(=O)NCCC(=O)Nc2ccccc2C)cc1 | -9.12 | 29.1 µM [falling, single point] | –
56 | CCOc1ccc2nc(SCC(=O)NC3CCCc4ccccc43)sc2c1 (stereo not given) | 31 | 9.2 µM [rising, partial curve, poor fit] | 9.2 µM [rising, partial curve, poor fit]
57 | c1ccc(CCNc2ncnc3scc(C4COc5ccccc5O4)c23)cc1 (stereo not given) | – | 29.1 µM [rising, single point] | –
58 | CCN(CC)C(=O)CSc1nc(OC)cc(=O)[nH]1 | 5.3 | 0.731 µM [falling, full curve] | 1.84 µM [falling, partial curve]
59 | O=C1C2C3C=CC(C3)C2C(=O)N1c1n[nH]c(CCc2ccccc2)n1 (stereo not given) | 7.27 | 20.6 µM [rising, partial curve] | –
60 | O=C(O)COc1ccccc1/C=N/NC(=O)CSc1nc2ccccc2s1 | 28.1 | 6.51 µM [rising, single point] | –
61 | Cc1ccnc(NS(=O)(=O)c2ccc(NC(=O)C3CCCCC3)cc2)n1 | -0.0431 | 32.6 µM [rising, single point] | –
